Primary screen of a compound library

Chains of the proteins cited; added tags and fusions are not shown.
UniProt E9BF75, entry or part of it: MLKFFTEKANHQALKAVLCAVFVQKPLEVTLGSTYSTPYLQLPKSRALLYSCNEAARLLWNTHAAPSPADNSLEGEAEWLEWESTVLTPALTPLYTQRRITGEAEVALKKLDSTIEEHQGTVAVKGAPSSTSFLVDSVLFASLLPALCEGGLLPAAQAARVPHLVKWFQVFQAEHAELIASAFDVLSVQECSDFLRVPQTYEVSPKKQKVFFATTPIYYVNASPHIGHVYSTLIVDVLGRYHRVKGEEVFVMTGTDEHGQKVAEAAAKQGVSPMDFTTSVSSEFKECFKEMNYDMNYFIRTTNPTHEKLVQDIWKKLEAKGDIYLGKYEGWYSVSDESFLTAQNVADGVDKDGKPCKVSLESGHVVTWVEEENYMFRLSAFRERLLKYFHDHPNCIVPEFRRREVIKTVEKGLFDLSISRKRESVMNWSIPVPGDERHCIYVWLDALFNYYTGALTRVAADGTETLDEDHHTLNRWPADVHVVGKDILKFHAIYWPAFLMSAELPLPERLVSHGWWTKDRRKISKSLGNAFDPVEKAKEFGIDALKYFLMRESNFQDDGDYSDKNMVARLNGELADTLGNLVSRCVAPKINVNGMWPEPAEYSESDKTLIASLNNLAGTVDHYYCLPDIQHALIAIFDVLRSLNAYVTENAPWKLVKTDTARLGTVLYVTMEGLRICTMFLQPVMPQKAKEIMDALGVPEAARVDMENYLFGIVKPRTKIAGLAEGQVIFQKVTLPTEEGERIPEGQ

Source: ChEMBL document CHEMBL3988442, “University of Dundee, Small-Polar-MMV Screening Library” (2021).

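Primary screen of methionyl-tRNA synthetase; the read-out is not stated. Target: Methionyl-tRNA synthetase (putative), Leishmania donovani (UniProt E9BF75). The test concentration is not given. Values are per cent inhibition. About 68,000 compounds were tested under these conditions; 0.035% (about 24) showed 50% or more at least once.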

All values are in %. How 0% and 100% were set is not recorded. Most values in the screen are low, and negative values occur. Compounds were drawn at random from those tested, without regard to their results.

{"smiles": "COc1ccc(CNC(=O)Nc2ccc(=O)n(C)c2)cc1", "Inhibition": 14.54}
{"smiles": "CN(Cc1c(F)cccc1Cl)C(=O)c1cnn(CCN2CCCCC2)c1", "Inhibition": 3.78}
{"smiles": "O=C(c1cnoc1)N1CCC[C@]2(C[C@@H](Oc3ccccn3)CO2)C1", "Inhibition": 16.25}
{"smiles": "COCCCc1nc(-c2ccc(S(=O)(=O)N3CCCC3)cc2)cs1", "Inhibition": 8.6}
{"smiles": "CN(Cc1ccc(Cl)cc1)S(=O)(=O)N(C)Cc1cnn(C)c1", "Inhibition": 15.38}
{"smiles": "CCOC(=O)N1CCN(C(=O)CCn2cccc2)CC1", "Inhibition": 18.66}
{"smiles": "CCN(CC)C(=O)Cn1ccc2cc(NC(=O)NC3CC3)ccc21", "Inhibition": 14.75}
{"smiles": "CCCS(=O)(=O)N1CCN(Cc2ccco2)CC1", "Inhibition": 11.55}
{"smiles": "Cc1cc(N(C)C)nc(N2CCn3c(nnc3C(C)C)C2)n1", "Inhibition": 0.304}
{"smiles": "O=C(C1CCOc2ccccc2C1)N1Cc2cnn(CCO)c2C1", "stereo": "stereo not drawn", "Inhibition": 4.545}
{"smiles": "COCCN1CCC1c1cc(N)nc(C)n1", "stereo": "stereo not drawn", "Inhibition": 3.492}
{"smiles": "Cc1cccc(-c2ncc(CNC(C)Cc3ncccc3C)cn2)c1", "stereo": "stereo not drawn", "Inhibition": 6.272}
{"smiles": "COc1cccc2c1OCC(NC(=O)NCCc1ccccn1)C2", "stereo": "stereo not drawn", "Inhibition": 8.609}
{"smiles": "Cc1cc(CN(C)C(=O)NCc2ccccn2)no1", "Inhibition": 8.242}
{"smiles": "Cc1ccc(Cl)c(CN2CCC(c3nccn3C(C)C)CC2)c1F", "Inhibition": 25.89}
{"smiles": "O=C(NCC1Cn2nnc(-c3cccc(F)c3)c2CO1)c1ccc[nH]1", "stereo": "stereo not drawn", "Inhibition": 9.15}
{"smiles": "COCCC1(CNC(=O)NCC2CN(C)CCN2C)CCC1", "stereo": "stereo not drawn", "Inhibition": 4.348}
{"smiles": "CCN1CC2(CCC1=O)CCN(Cc1cccc(C#N)c1)CC2", "Inhibition": 21.88}
{"smiles": "O=C(CCN1CCOC1=O)N(Cc1ccncc1)CC1CCCO1", "stereo": "stereo not drawn", "Inhibition": 9.399}
{"smiles": "CCOc1cccc(C(C(=O)O)N(C)Cc2cc(C)no2)c1", "stereo": "stereo not drawn", "Inhibition": 12.04}
{"smiles": "COc1ccc(-n2ccc(CNCc3cccc(OC)c3)n2)cc1", "Inhibition": 17.03}
{"smiles": "CCC(C(=O)NCC1CCN(c2ccncc2)CC1)N(C)C", "stereo": "stereo not drawn", "Inhibition": 14.16}
{"smiles": "CCc1nc(-c2ccc(C(=O)N3CCC4(CC3)OCCO4)cc2)no1", "Inhibition": 15.16}
{"smiles": "CN(C)C1CCCN(C(=O)CCc2csc(N)n2)CC1", "stereo": "stereo not drawn", "Inhibition": 10.44}
{"smiles": "Cc1ccc(-c2cc(C(=O)NCCN3CCCS3(=O)=O)[nH]n2)o1", "Inhibition": 19.47}
{"smiles": "O=C(C1CCC1)N1CCc2[nH]cnc2C12CCN(C1CCOCC1)CC2", "Inhibition": 1.985}
{"smiles": "CN(CCOCC1CC1)C(=O)Nc1ccc([S+](C)[O-])c(F)c1", "stereo": "stereo not drawn", "Inhibition": 13.47}
{"smiles": "COc1cc(CNc2nc(C(F)(F)F)no2)cc(OC)c1OC", "Inhibition": 22.08}
{"smiles": "C[C@@H](NC(=O)c1cnccn1)c1c(-c2ccc(Cl)cc2)noc1C(=O)O", "Inhibition": 14.84}
{"smiles": "CC(C)(C)OCCN(Cc1cccc(O)c1)C1CCC(O)CC1", "stereo": "stereo not drawn", "Inhibition": 6.62}
{"smiles": "Cc1cnn(CC2CN(Cc3nnc(-c4ccccc4)o3)CCO2)c1", "stereo": "stereo not drawn", "Inhibition": 12.01}
{"smiles": "O=S(=O)(NC1CCOC1)c1ccc(C(F)(F)F)nc1", "stereo": "stereo not drawn", "Inhibition": 12.04}
{"smiles": "O=C(NCC(F)(F)F)C1CCCN(Cc2ccno2)C1", "stereo": "stereo not drawn", "Inhibition": 18.12}
{"smiles": "CC(=O)N1CCO[C@@H]2CN(C(=O)NCc3ccccc3)CC[C@@H]2C1", "Inhibition": -3.101}
{"smiles": "CC(CNC(=O)OC(C)(C)C)N(C)C(=O)COc1ccccc1C#N", "stereo": "stereo not drawn", "Inhibition": 20.12}
{"smiles": "CC(=O)Nc1ncc(S(=O)(=O)Nc2ccc3c(c2)OCCO3)s1", "Inhibition": 22.86}
{"smiles": "COc1ccc(-c2cc(C3CCOC3)c(C#N)c(N)n2)cn1", "stereo": "stereo not drawn", "Inhibition": -1.099}
{"smiles": "CC(c1cccc(Cl)c1)N(C)CCS(=O)(=O)CCC(N)=O", "stereo": "stereo not drawn", "Inhibition": 4.632}
{"smiles": "Cc1cc(=O)c(C(=O)N2CCC(C(O)Cc3ccccc3)CC2)c(C)[nH]1", "stereo": "stereo not drawn", "Inhibition": 14.36}